{"source": "paper PMC9406194", "key": {"[1]": {"target": "lysozyme (UniProt P00698)", "assay": "not stated (cited value)", "settings": "5'-NH2-(CH2)6 and 3'-(CH2)6-NH2; amide-linked to hydrogel carboxyl groups; 10 mM phosphate-buffered saline, pH 7.40 (one test at pH 5.00), 1 h immersion; temperature of the binding assay not stated; commercial protein; single-stranded DNA"}, "[2]": {"target": "bovine serum albumin (bovine) (UniProt P02769)", "assay": "2DPC hydrogel aptasensor (Debye ring)", "settings": "DNA-H1-960, 500 uM protein, same limit as blank; 5'-NH2-(CH2)6 and 3'-(CH2)6-NH2; amide-linked to hydrogel carboxyl groups; 10 mM phosphate-buffered saline, pH 7.40 (one test at pH 5.00), 1 h immersion; temperature of the binding assay not stated; commercial protein; single-stranded DNA"}, "[3]": {"target": "lysozyme (UniProt P00698)", "assay": "2DPC hydrogel aptasensor (Debye ring)", "settings": "DNA-H1-960, 500 uM lysozyme, pH 5.00, smaller change than at pH 7.40, attributed to loss of carboxyl charge of the gel; 5'-NH2-(CH2)6 and 3'-(CH2)6-NH2; amide-linked to hydrogel carboxyl groups; 10 mM phosphate-buffered saline, pH 7.40 (one test at pH 5.00), 1 h immersion; temperature of the binding assay not stated; commercial protein; single-stranded DNA"}}, "note": "pKd: −log10 of the molar value. For part of these data: The exact form of at least one protein or probe is not confirmed. For part of these data: A weaker result is weaker than the reference pair of the same experiment. For part of these data: Whether high values mean tight binding is not given here for every scale."}
{"sequence": "ATCTACGAATTCATCAGGGCTAAAGAGTGCAGAGTTACTTAG [lysozyme-binding aptamer]", "values": [{"measurement": "pKd", "setting": "[1]", "result": 7.51}, {"measurement": "binding signal (nm particle spacing decrease)", "setting": "[2]", "result": "< 12.7"}, {"measurement": "binding result", "setting": "[3]", "result": "binds more weakly"}]}
